Measurements published in PMC6070490.
Results are given in words; binding and its absence hold for the method and conditions named. Some results given as binding are weak or reduced against the parent protein; the word gives no strength.

Protein sequences, listed by entry. Tags and fused reporters are not part of them. Lines headed by an entry give the natural chain unless they say otherwise; changes in a name come on top. Residues count along the entry.
UniProt P02968: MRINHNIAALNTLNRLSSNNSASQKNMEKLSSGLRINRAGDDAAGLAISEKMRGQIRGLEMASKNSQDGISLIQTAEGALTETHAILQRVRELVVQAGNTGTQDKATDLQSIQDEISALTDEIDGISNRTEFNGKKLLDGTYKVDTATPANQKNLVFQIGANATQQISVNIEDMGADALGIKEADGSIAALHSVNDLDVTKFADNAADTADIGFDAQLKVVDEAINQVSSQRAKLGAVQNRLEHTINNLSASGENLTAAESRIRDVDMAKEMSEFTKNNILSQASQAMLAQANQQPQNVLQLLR
N72-flagellin: residues 1-72 of P02968

How the values were obtained:
[1] = target: flagellin (full-length, Bacillus subtilis) (B. subtilis) (UniProt P02968); assay: SEC-MALS; multi-angle light scattering of the co-purified flagellin/FliS complex; both purified
[2] = target: flagellin (full-length, Bacillus subtilis) (B. subtilis) (UniProt P02968); assay: crystal structure; sitting drop, 20 °C; flagellin/FliS at 50 mg/ml; two crystal forms (P2_1 at 1.5 Å, P22_12_1 at 2.1 Å); both purified
[3] = target: flagellin (full-length, Bacillus subtilis) (B. subtilis) (UniProt P02968); assay: SEC; co-purified or reconstituted complexes on size exclusion chromatography; peak fractions on Coomassie-stained SDS-PAGE; both purified
[4] = target: flagellin (full-length, Bacillus subtilis) (B. subtilis) (UniProt P02968); assay: SAXS; small angle X-ray scattering in solution of FliW, flagellin/FliS and FliS/flagellin/FliW; crystal structures fitted into the shapes; both purified
[5] = target: N72-flagellin (B. subtilis) (UniProt P02968); assay: SEC; co-purified or reconstituted complexes on size exclusion chromatography; peak fractions on Coomassie-stained SDS-PAGE; both purified
[6] = target: T1, flagellin/FliS heterodimer (B. subtilis) (UniProt P02968+P39739); assay: as above
[7] = target: T1, flagellin/FliS heterodimer (B. subtilis); assay: SAXS; small angle X-ray scattering in solution of FliW, flagellin/FliS and FliS/flagellin/FliW; crystal structures fitted into the shapes; both purified
[8] = target: flagellin (full-length, Bacillus subtilis) (B. subtilis) (UniProt P02968); assay: HDX-MS; proteins incubated without or with the binding partner, diluted in D2O-containing SEC buffer, stopped at different times, online pepsin digest; both purified

Measured: binding

B1: FliS (Bacillus subtilis) (protein, UniProt P39739 1-133)
chain: MAIQNPYTAYQQNSVNTATPGELTLMLYNGCLKFIRLAAQAIENDDMERKNENLIKAQNIIQELNFTLNRNIELSASMGAMYDYMYRRLVQANIKNDTGMLAEVEGYVTDFRDAWKQAIQSERKDRHGSGGIA
binds: [1] | [2] | [3] | [4]

B2: FliW (Bacillus subtilis) (protein, UniProt P96503 1-143)
chain: MIIHTKYHGQMNIKEEQIILFESGIPGFLEEKQFVILPLSEDSPFVALQSVTSENLAFIVVSPFIFFKNYEFDLDESTAELLDIDNIQDVEVMTILTMAEPFEKSTANLLAPIIVNRKNMMAKQVVLHDSSYTTKHPIGGESC
binds: [5] | [3] | [6] | [7] | [8]
